Laboratory results taken from US20190023782A1 (SHANGHAI JUNSHI BIOSCIENCES, published 2019).
These are yes or no findings as the source states them, for the method shown.

What was measured:
[1] = substrate: ICOS; assay: ELISA, antigen coated at 1 ug/ml
CD28 = assay: ELISA, antigen coated at 1 ug/ml
CTLA-4 = assay: ELISA, antigen coated at 1 ug/ml
[2] = biological target: mouse-derived PD-1 (mouse); assay: ELISA, PD-1 coated at 1 ug/ml, various antibody concentrations

| Binder | binding [1] | binding (CD28) | binding (CTLA-4) | binding [2] |
| --- | --- | --- | --- | --- |
| Clone 11 (antibody, V domains shown, Mouse hybridoma antibody; also called antibody candidate Clone 11) VH: QVTLKESGPGILQPSQTLSLTCSFSGFSLSTFGMGVGWIRQPSGKGLEWLAHIWWDDDKYYNPALKSRLTISKNTSKNQVFLKIANVDTEDTATYYCARIEERFRWYFDVWGTGTTVTVSS VL: RAGWTQESALTTSPGETVTLTCRSSTGAITTSNYANWVQEKPDHLFTGLIGGTNNRAPGVPARFSGSLIGDKAALTITGAQTEDEAIYFCALWYSNHWVFGGGTKLTVL | no binding (tested: 1 ug/ml) | no binding (tested: 1 ug/ml) | no binding (tested: 1 ug/ml) |  |
| H1L1 (antibody, V domains shown, also called original antibody 1 (heavy chain 1, light chain 1)) VH: QGQLQQSGAELVRPGASVTLTCKASGYTFTDYEMHWVKQTPIHGLEWIGVIESETGGTAYNQKFKGKAKLTADKSSSTAYMELRSLTSEDSAVYYCTREGITTVATTYYWYFDVWGTGTTVTVSS VL: DVLMTQTPLSLPVSLGDQASISCRSSQSIVHSNGNTYLEWYLQKPGQSPELLIYKVYNRFSGVPDRFSGSGSGTDFTLKISRVEAEDLGVYYCFQGSHVPFTFGSGTKLEIK | no binding (tested: 1 ug/ml) | no binding (tested: 1 ug/ml) | no binding (tested: 1 ug/ml) |  |
| H10L10 (antibody, V domains shown, also called original antibody 10 (heavy chain 10, light chain 10)) VH: QVQLQQSGAELVRPGASVTLSCKASGYTFTDYEMHWVKQTPVHGLEWIGAIDPETGGAAYNQKFKGKAILTADKSSSTAYMELRSLTSEDSAVYYCTREGITTSVVTYYWYFDVWGTGTTVTVSS VL: DVLMTQTPLSLPVSLGDQASISCRSSQSIVHSNGNTYLEWYLQKPGQSPKLLIYKVSNRFSGVPDRFSGSGSGTDFTLRISRVEPEDLGVYYCFQGSHVPLTFGSGTKLEIK | no binding (tested: 1 ug/ml) | no binding (tested: 1 ug/ml) | no binding (tested: 1 ug/ml) |  |

Results, then the binder that gave them:

| binding [1] | binding (CD28) | binding (CTLA-4) | binding [2] | Binder |
| --- | --- | --- | --- | --- |
|  |  |  | no binding | humanized antibody Clone 39 (antibody, V domains shown) VH: QGQLVQSGAEVKKPGASVKVSCKASGYTFTDYEMHWVRQAPGQGLEWMGVIESETGGTAYNQKFKGRAKITADKSTSTAYMELSSLRSEDTAVYYCTREGITTVATTYYWYFDVWGQGTTVTVSS VL: DVVMTQSPLSLPVTLGQPASISCRSSQSIVHSNGNTYLEWYLQKPGQSPQLLIYKVSNRFSGVPDRFSGSGSGTDFTLKISRVEAEDVGVYYCFQGSHVPLTFGQGTKLEIK |
|  |  |  | no binding | humanized antibody Clone 48 (antibody, V domains shown) VH: QGQLVQSGAEVKKPGASVKVSCKASGYTFTDYEMHWVRQAPGQGLEWMGVIESETGGTAYNQKFKGRAKITADKSTSTAYMELSSLRSEDTAVYYCTREGITTVATTYYWYFDVWGQGTTVTVSS VL: DVVMTQSPLSLPVTLGQPASISCRSSQSIVHSNGNTYLEWYLQKPGQSPRLLIYKVSNRFSGVPDRFSGSGSGTDFTLKISRVEAEDVGVYYCFQGSHVPLTFGQGTKLEIK |
|  |  |  | no binding | humanized antibody Clone 38 (antibody, V domains shown) VH: QGQLVQSGAEVKKPGASVKVSCKASGYTFTDYEMHWVRQAPIHGLEWIGVIESETGGTAYNQKFKGRVTITADKSTSTAYMELSSLRSEDTAVYYCAREGITTVATTYYWYFDVWGQGTTVTVSS VL: DVVMTQSPLSLPVTLGQPASISCRSSQSIVHSNGNTYLEWYLQKPGQSPQLLIYKVSNRFSGVPDRFSGSGSGTDFTLKISRVEAEDVGVYYCFQGSHVPLTFGQGTKLEIK |
